For nine substances, crude yield, step yield and isolated yield results are on record in US4330532A (Richter Gedeon Vegyeszeti Gyar Rt., priority 1980, dated 1982).

The series can be described thus: general procedure: solution-phase peptide synthesis; pentafluorophenyl active esters (e.g. Z-Sar-OPfp). The following applies: for step yield: late stage modification step.
Setting [1] is: whole synthesis, calculated for His.

HELM strings list residues between dots; [ac] is acetyl, [am] amide, other brackets name non-standard units.

For “Z-Sar-Arg(NO2)-Val-Tyr(Bzl)-Ile-His(Dnp)-Pro-HMV-OBzl”, the crude yield under setting [1] is on record as 30%.

“PEPTIDE1{[Sar].R.V.Y.I.H.P.[Lac]}$$$$V2.0” gave a step yield of 84%.

Turning to “PEPTIDE1{[Sar].R.V.Y.I.H.P.[HMV]}$$$$V2.0”, the step yield was determined as 67%.

Regarding “(Sar^1,Lac^8)-Ang-II Dnp-free protected octapeptide”, the step yield was 89%.

As for “Z-Sar-Arg(NO2)-Val-Tyr(Bzl)-Ile-His(Dnp)-Pro-Lac-OBzl”, the crude yield under setting [1] was 29.6%.

“(Sar^1,HMV^8)-Ang-II Dnp-free protected octapeptide” registered a step yield of 80%.

For “PEPTIDE1{[Sar].R.V.Y.I.H.P.[Lac].[OEt]}$$$$V2.0”, the step yield was 96%.

As for “Z-Sar-Arg(NO2)-Val-Tyr(Bzl)-Ile-His(Dnp)-Pro-Lac-OEt”, the isolated yield under setting [1] is given as 17.5%.

For “(Sar^1,Lac-OEt^8)-Ang-II Dnp-free protected octapeptide”, the step yield was 89%.
